From patent US20060204537A1, “Silicone blends and composites for drug delivery” (Genzyme Corporation, priority 2002, published 2006)
At least one structure is not confirmed: it was looked up by name or label, or the drawing left a doubt.

Assay: Release of Tranilast from silicone elastomer coatings into PBS, pH 7.4
Assay type: physicochemical

COc1ccc(/C=C/C(=O)Nc2ccccc2C(=O)O)cc1OC [Tranilast]
time after which release leveled off (all samples with topcoats of silicone or silicone/PEG, PBS pH 7.4): about 21 days | effect of topcoats on initial burst and release time (all topcoats, from 1% or 10% silicone solutions, with or without PEG): reduced the initial burst and lengthened the release time | initial release rate of Tranilast (films with about 20% wt PEG compared with films without PEG, PBS pH 7.4): higher initial release rate | time after which release leveled off to zero (silicone coatings with PEG, no topcoat, PBS pH 7.4): 21 days
